According to paper doi:10.1101/2021.01.19.427293:

How the values were obtained:
[1] = target: T1, MBP-tagged PLL4 (6xHis-MBP-PLL4) (Arabidopsis thaliana) (UniProt Q9ZV25); assay: pull-down
T1 sequence: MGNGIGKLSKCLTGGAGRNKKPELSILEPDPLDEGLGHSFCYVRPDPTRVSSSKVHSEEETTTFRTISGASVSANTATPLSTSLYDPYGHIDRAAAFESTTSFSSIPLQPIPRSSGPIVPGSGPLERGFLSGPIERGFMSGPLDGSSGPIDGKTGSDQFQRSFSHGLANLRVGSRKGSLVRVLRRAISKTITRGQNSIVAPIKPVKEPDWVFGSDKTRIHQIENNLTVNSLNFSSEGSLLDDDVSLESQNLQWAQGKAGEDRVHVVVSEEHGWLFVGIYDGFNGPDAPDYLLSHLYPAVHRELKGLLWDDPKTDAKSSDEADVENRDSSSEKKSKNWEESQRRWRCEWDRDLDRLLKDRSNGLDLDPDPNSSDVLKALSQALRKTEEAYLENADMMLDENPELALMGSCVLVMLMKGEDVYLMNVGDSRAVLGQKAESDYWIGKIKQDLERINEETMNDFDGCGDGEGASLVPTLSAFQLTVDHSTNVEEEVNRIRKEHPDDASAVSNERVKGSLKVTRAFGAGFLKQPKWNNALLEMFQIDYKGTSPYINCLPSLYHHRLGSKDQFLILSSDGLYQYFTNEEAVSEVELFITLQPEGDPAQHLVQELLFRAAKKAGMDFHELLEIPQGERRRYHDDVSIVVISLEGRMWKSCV

[2] = target: T2, MBP-tagged POL (6xHis-MBP-POL) (Arabidopsis thaliana) (UniProt Q8RWN7); assay: pull-down
T2 sequence: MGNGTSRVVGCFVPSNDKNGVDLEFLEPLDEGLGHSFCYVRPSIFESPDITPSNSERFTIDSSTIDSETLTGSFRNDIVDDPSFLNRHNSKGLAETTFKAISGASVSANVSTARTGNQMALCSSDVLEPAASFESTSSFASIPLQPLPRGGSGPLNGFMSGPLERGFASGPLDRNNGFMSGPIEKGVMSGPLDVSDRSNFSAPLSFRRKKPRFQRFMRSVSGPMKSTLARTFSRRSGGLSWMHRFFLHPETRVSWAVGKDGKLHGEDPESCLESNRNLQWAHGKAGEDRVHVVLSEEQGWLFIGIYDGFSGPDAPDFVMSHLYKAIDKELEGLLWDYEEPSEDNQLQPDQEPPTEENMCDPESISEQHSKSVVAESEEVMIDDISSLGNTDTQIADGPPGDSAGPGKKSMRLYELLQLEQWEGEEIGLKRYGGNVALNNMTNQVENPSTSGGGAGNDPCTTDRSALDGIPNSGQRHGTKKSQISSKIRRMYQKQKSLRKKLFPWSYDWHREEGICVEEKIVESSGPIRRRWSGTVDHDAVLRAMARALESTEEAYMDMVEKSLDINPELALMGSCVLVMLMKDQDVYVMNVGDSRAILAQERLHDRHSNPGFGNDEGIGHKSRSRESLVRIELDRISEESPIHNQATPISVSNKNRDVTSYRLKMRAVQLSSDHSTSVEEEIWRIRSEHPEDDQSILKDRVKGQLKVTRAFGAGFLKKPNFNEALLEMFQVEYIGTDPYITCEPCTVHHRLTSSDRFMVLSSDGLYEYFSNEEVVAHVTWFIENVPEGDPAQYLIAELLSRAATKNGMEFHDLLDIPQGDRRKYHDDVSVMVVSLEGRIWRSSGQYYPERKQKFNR

[3] = target: … SENSING 2 (FLS2)-GFP (Arabidopsis thaliana) (UniProt Q9FL28); assay: co-IP
[4] = target: … SENSING 2 (FLS2)-GFP (Arabidopsis thaliana) (UniProt Q9FL28); assay: co-IP; remark: listed apart in the source

binding [1]: binds
Substance: 6xHis-tagged cytosolic domain of EFR (6xHis-EFR-CD) (Arabidopsis thaliana) (domain or fragment)

binding [2]: binds
Substance: GST-tagged cytosolic domain of BAM3 (6xHis-GST-BAM3-CD) (Arabidopsis thaliana) (domain or fragment)

binding [3]: binds | binding [4]: binds
Substance: PLL4^3A, HA-tagged (phospho-dead variant of PLL4) (from UniProt Q9ZV25) (enzyme)

Like-named read-outs stand apart in the source and are kept apart here. Results are given in words; binding and its absence hold for the method and conditions named. A result given as binding can be weak or reduced; the word gives no strength. For some of these results: Sequences can lack the tags named with a protein. For some of these results: In cells and extracts the contact can be indirect. One block for each substance: values may come before it.
